Measured values: the supplement of paper PMC10331698
± gives the standard deviation of the averaged measurements. Most entries show no effect beyond the scatter of the controls.

Columns and labels:
Test in all cases: level (log10 ratio to DMSO vehicle control); higher = higher biomarker level / cell amount than vehicle control
[1] = compound: O=S(=O)(F)C(F)(F)C(F)(F)C(F)(F)C(F)(F)C(F)(F)C(F)(F)C(F)(F)C(F)(F)F [Perfluorooctanesulfonyl fluoride]; conditions: 2200 nM; in DMSO
Procedure: (§1)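 BioMAP Diversity Plus panel of 12 human primary cell co-culture systems (3C, 4H, LPS, SAg, BT, BF4T, BE3C, CASM3C, HDF3CGF, KF3CT, MyoF, Mphg). Compounds were added 1 h before stimulation and left for 24 h (MyoF 48 h; BT 72 h for soluble read-outs or 6 d for IgG). Biomarkers were read by ELISA, cytotoxicity by SRB, PBMC viability and proliferation by Alamar Blue. Each well value was divided by the mean of 8 DMSO control wells on the same plate and log10 transformed; duplicate blinded samples were tested at 4 concentrations.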

[2] = compound: O=P(O)(O)CCC(F)(F)C(F)(F)C(F)(F)C(F)(F)C(F)(F)C(F)(F)F [2-(Perfluorohexyl)ethylphosphonic acid]; conditions: 2200 nM; in DMSO
Procedure: as §1

[3] = compound: O=S(=O)(O)C(F)(F)C(F)(F)C(F)(F)C(F)(F)C(F)(F)C(F)(F)C(F)(F)C(F)(F)F [Potassium perfluorooctanesulfonate]; conditions: 2200 nM; in DMSO
Procedure: as §1

[4] = compound: O=S(=O)(O)C(F)(F)C(F)(F)C(F)(F)C(F)(F)C(F)(F)C(F)(F)C(F)(F)C(F)(F)F [Perfluorooctanesulfonic acid]; conditions: 2200 nM; in DMSO
Procedure: as §1

[5] = compound: C=C(C)C(=O)OCC(F)(F)C(F)(F)C(F)(F)C(F)(F)C(F)(F)C(F)(F)C(F)(F)F; conditions: in DMSO
Procedure: as §1

[6] = compound: NS(=O)(=O)C(F)(F)C(F)(F)C(F)(F)C(F)(F)C(F)(F)C(F)(F)C(F)(F)C(F)(F)F [Perfluorooctanesulfonamide]; conditions: in DMSO
Procedure: as §1

[7] = compound: COC(=O)C(F)(F)C(F)(F)OC(F)(C(F)(F)F)C(F)(F)OC(F)=C(F)F [Methyl perfluoro(3-(1-ethenyloxypropan-2-yloxy)propanoate)]; conditions: in DMSO
Procedure: as §1

[8] = compound: C=CC(F)(F)C(F)(F)C(F)(F)C(F)(F)C(F)(F)C(F)(F)C(F)(F)C(F)(F)C=C [1,8-Divinylperfluorooctane]; conditions: in DMSO
Procedure: as §1

[9] = compound: NC(=O)C(F)(F)C(F)(F)C(F)(F)C(F)F; conditions: in DMSO
Procedure: as §1

[10] = compound: OCCCCC(F)(F)C(F)(F)C(F)(F)C(F)(F)F [4:4 Fluorotelomer alcohol]; conditions: 2200 nM; in DMSO
Procedure: as §1

[11] = compound: CO[Si](C)(CCC(F)(F)C(F)(F)C(F)(F)C(F)(F)C(F)(F)C(F)(F)F)OC [Dimethoxymethyl((perfluorohexyl)ethyl)silane]; conditions: in DMSO
Procedure: as §1

[12] = compound: FC(F)(F)C(F)(F)C(F)(F)CC1CO1 [1H,1H-Heptafluorobutyl epoxide]; conditions: 2200 nM; in DMSO
Procedure: as §1

[13] = compound: O=S(=O)(OCC(F)(F)F)C(F)(F)C(F)(F)C(F)(F)C(F)(F)F [2,2,2-Trifluoroethyl perfluorobutanesulfonate]; conditions: 2200 nM; in DMSO
Procedure: as §1

[14] = compound: C=CC(=O)OCC(F)(F)C(F)(F)C(F)(F)C(F)(F)C(F)(F)C(F)(F)C(F)(F)F [1H,1H-Perfluorooctyl acrylate]; conditions: 2200 nM; in DMSO
Procedure: as §1

Pentafluoropropionamide = compound: NC(=O)C(F)(F)C(F)(F)F [Pentafluoropropionamide]; conditions: 2200 nM; in DMSO
Procedure: as §1

[15] = compound: O=C(O)C(F)(F)C(F)(F)C(F)F [4H-Perfluorobutanoic acid]; conditions: in DMSO
Procedure: as §1

Heptafluorobutyl iodide = compound: FC(F)(F)C(F)(F)C(F)(F)CI [Heptafluorobutyl iodide]; conditions: 2200 nM; in DMSO
Procedure: as §1

[16] = compound: OCC(F)(F)C(F)(F)C(F)(F)C(F)(F)C(F)(F)C(F)F [1H,1H,7H-Dodecafluoro-1-heptanol]; conditions: 2200 nM; in DMSO
Procedure: as §1

Row | Test System | level (log10) [1] | level (log10) [2] | level (log10) [3] | level (log10) [4] | level (log10) ([5]; 740 nM) | level (log10) ([5]; 2200 nM) | level (log10) ([6]; 2200 nM) | level (log10) ([6]; 6700 nM) | level (log10) ([6]; 20000 nM) | level (log10) ([7]; 740 nM) | level (log10) ([7]; 2200 nM) | level (log10) ([8]; 740 nM) | level (log10) ([8]; 2200 nM) | level (log10) ([9]; 2200 nM) | level (log10) ([9]; 6700 nM) | level (log10) ([9]; 20000 nM) | level (log10) ([9]; 60000 nM) | level (log10) [10] | level (log10) ([11]; 740 nM) | level (log10) ([11]; 2200 nM) | level (log10) [12] | level (log10) [13] | level (log10) [14] | level (log10) (Pentafluoropropionamide) | level (log10) ([15]; 2200 nM) | level (log10) ([15]; 6700 nM) | level (log10) ([15]; 20000 nM) | level (log10) ([15]; 60000 nM) | level (log10) (Heptafluorobutyl iodide) | level (log10) [16]
1 | SAg:CD62E/E-Selectin | -0.0055 ± 0.043 | 0.0065 ± 0.033 | -0.0005 ± 0.00071 | 0.007 ± 0.034 | 0.012 ± 0.014 | 0.0065 ± 0.0035 | 0.019 ± 0.028 | -0.0165 ± 0.00071 | -0.0845 ± 0.015 | 0 ± 0.03 | 0.0065 ± 0.033 | -0.008 ± 0.023 | -0.016 ± 0.024 | 0.011 ± 0.051 | 0.005 ± 0.04 | -0.0135 ± 0.039 | 0.0155 ± 0.036 | 0.0125 ± 0.021 | -0.0185 ± 0.015 | -0.018 ± 0.017 | 0.001 ± 0.017 | -0.0065 ± 0.005 | 0.0125 ± 0.021 | -0.002 ± 0.0014 | -0.007 ± 0.021 | -0.0205 ± 0.018 | -0.002 ± 0.0014 | 0.0175 ± 0.0078 | -0.0155 ± 0.022 | -0.006 ± 0.02
2 | CASM3C:LDLR | 0.0005 ± 0.016 | -0.0085 ± 0.023 | 0.039 ± 0.047 | 0.0175 ± 0.046 | 0.0265 ± 0.059 | 0.0005 ± 0.021 | 0.007 ± 0.02 | -0.0095 ± 0.011 | -0.0165 ± 0.0078 | 0.0005 ± 0.012 | 0.0025 ± 0.005 | 0.0265 ± 0.032 | -0.0005 ± 0.00071 | -0.001 ± 0.0042 | -0.008 | -0.006 ± 0.024 | 0.031 ± 0.042 | 0.0425 ± 0.018 | 0.0165 ± 0.025 | -0.005 ± 0.013 | -0.0065 ± 0.022 | 0.0085 ± 0.053 | 0.0105 ± 0.012 | 0.0415 ± 0.046 | -0.0595 ± 0.0078 | -0.0785 ± 0.037 | -0.039 ± 0.0042 | -0.0235 ± 0.026 | 0.0075 ± 0.013 | 0.008 ± 0.059
3 | lMphg:SRB | -0.0025 ± 0.0035 | 0.0095 ± 0.019 | 0.0055 ± 0.005 | -0.003 ± 0.0057 | -0.014 ± 0.0028 | -0.005 ± 0.013 | -0.0185 ± 0.013 | -0.013 | -0.052 ± 0.0085 | 0.0015 ± 0.0064 | -0.001 ± 0.0057 | -0.0075 ± 0.033 | 0.002 ± 0.0028 | 0.005 | -0.008 ± 0.0057 | -0.007 ± 0.0042 | -0.0005 ± 0.018 | -0.0015 ± 0.0078 | -0.006 ± 0.011 | -0.004 ± 0.0014 | -0.003 ± 0.0014 | -0.0035 ± 0.005 | -0.012 ± 0.016 | 0.008 ± 0.0099 | -0.007 ± 0.011 | -0.0035 ± 0.019 | -0.005 ± 0.0057 | 0.0025 ± 0.0021 | 0.0055 ± 0.012 | -0.01 ± 0.0057
4 | KF3CT:IL-1alpha | -0.012 ± 0.018 | -0.0205 ± 0.023 | 0.0145 ± 0.005 | 0.0175 ± 0.023 | 0.0205 ± 0.08 | -0.0085 ± 0.047 | 0.0675 ± 0.018 | 0.074 ± 0.0042 | -0.056 ± 0.02 | 0.02 ± 0.021 | 0.0255 ± 0.025 | -0.0005 ± 0.028 | -0.0475 ± 0.0021 | 0.0115 ± 0.076 | -0.0165 ± 0.011 | -0.0265 ± 0.005 | 0.008 ± 0.045 | 0.0115 ± 0.00071 | 0 ± 0.024 | -0.0185 ± 0.0064 | 0.0025 ± 0.05 | 0.007 ± 0.059 | -0.01 ± 0.016 | 0.0005 ± 0.029 | -0.0265 ± 0.028 | 0.001 ± 0.05 | -0.0055 ± 0.005 | 0.0075 ± 0.06 | -0.025 ± 0.028 | 0.0055 ± 0.021
5 | CASM3C:IL-6 | 0.0005 ± 0.019 | 0 ± 0.033 | 0.047 ± 0.067 | 0.0175 ± 0.052 | 0.0135 ± 0.043 | -0.0105 ± 0.032 | 0.0085 ± 0.025 | -0.0275 ± 0.018 | -0.023 ± 0.014 | 0.0145 ± 0.029 | -0.0065 ± 0.042 | 0.0095 ± 0.035 | -0.021 ± 0.0057 | 0 ± 0.041 | -0.0315 ± 0.0064 | -0.0165 ± 0.012 | 0.017 ± 0.05 | 0.0475 ± 0.047 | 0.007 ± 0.035 | -0.007 ± 0.0085 | 0.0035 ± 0.054 | 0 ± 0.052 | -0.015 ± 0.059 | 0.0225 ± 0.054 | 0.0175 ± 0.022 | -0.0125 ± 0.0035 | 0.0045 ± 0.023 | 0.0225 ± 0.021 | 0.006 ± 0.044 | 0.0275 ± 0.049
6 | BE3C:Keratin 8/18 | -0.0055 ± 0.00071 | -0.001 ± 0.018 | 0.0125 ± 0.018 | 0.005 ± 0.038 | 0.0045 ± 0.016 | -0.0125 ± 0.0064 | -0.0205 ± 0.012 | -0.0475 ± 0.013 | -0.0185 ± 0.0021 | 0.0035 ± 0.037 | 0.0035 ± 0.022 | -0.007 ± 0.018 | -0.013 ± 0.0014 | -0.009 ± 0.028 | -0.0045 ± 0.0092 | -0.0025 ± 0.005 | -0.0185 ± 0.033 | -0.005 ± 0.018 | 0.001 ± 0.023 | 0.023 ± 0.0014 | -0.007 ± 0.018 | -0.0075 ± 0.0064 | -0.016 ± 0.027 | -0.007 ± 0.0028 | -0.0125 ± 0.019 | -0.017 ± 0.014 | -0.021 ± 0.011 | 0.0075 ± 0.00071 | -0.008 ± 0.0085 | -0.0005 ± 0.0064
7 | SAg:PBMC Cytotoxicity | 0.0165 ± 0.061 | -0.0115 ± 0.03 | 0.002 ± 0.054 | 0.006 ± 0.058 | 0.0045 ± 0.0064 | 0.0035 ± 0.037 | 0.032 ± 0.038 | 0.009 ± 0.034 | 0.0315 ± 0.0064 | -0.0115 ± 0.044 | -0.0125 ± 0.00071 | -0.02 ± 0.065 | -0.011 ± 0.037 | -0.009 ± 0.0057 | 0.018 ± 0.016 | -0.008 ± 0.011 | 0.0425 ± 0.067 | 0.0155 ± 0.033 | 0.016 ± 0.067 | -0.0095 ± 0.013 | 0.012 ± 0.042 | -0.002 ± 0.028 | 0.0225 ± 0.032 | -0.0065 ± 0.0035 | 0.0195 ± 0.023 | -0.0205 ± 0.015 | 0.002 ± 0.0042 | 0.017 ± 0.033 | 0.028 ± 0.023 | -0.0195 ± 0.043
